One molecule from patent publication US20170260508A1 can be followed below.

These are yes or no findings as the source states them, for the method shown. Sequences can lack the tags named with a protein.

This assay addresses LILRB2 Ig1+2 fragment with mutations in AA 92-100 (Mut-8 aa) (human). Put plainly: flow cytometry, Angptl2 on 293T cells expressing the mutant. (Flow cytometry measures light scatter and fluorescence of single cells or particles in a stream.)

B1: Angptl2-FLAG, full-length human Angptl2 secreted from transfected 293T cells (ligand, not shown: small tags and cut ends)
chain: QEDGFEGTEEGSPREFIYLNRYKRAGESQDKCTYTFIVPQQRVTGAICVNSKEPEVLLENRVHKQELELLNNELLKQKRQIETLQQLVEVDGGIVSEVKLLRKESRNMNSRVTQLYMQLLHEIIRKRDNALELSQLENRILNQTADMLQLASKYKDLEHKYQHLATLAHNQSEIIAQLEEHCQRVPSARPVPQPPPAAPPRVYQPPTYNRIINQISTNEIQSDQNLKVLPPPLPTMPTLTSLPSSTDKPSGPWRDCLQALEDGHDTSSIYLVKPENTNRLMQVWCDQRHDPGGWTVIQRRLDGSVNFFRNWETYKQGFGNIDGEYWLGLENIYWLTNQGNYKLLVTMEDWSGRKVFAEYASFRLEPESEYYKLRLGRYHGNAGDSFTWHNGKQFTTLDRDHDVYTGNCAHYQKGGWWYNACAHSNLNGVWYRGGHYRSRYQDGVYWAEFRGGSYSLKKVVMMIRPNPNTFH
With B1, the binding result is “no binding”.
